Measurements taken from article PMC3738441.
Results are given in words; binding and its absence hold for the method and conditions named. In cells and extracts the contact can be indirect. Some results given as binding are weak or reduced against the parent protein; the word gives no strength. For some assays here: Tags and fused reporters may be left off the sequences shown. Each block holds one binder with its values, some of them ahead of it.

What was measured:
Assay in all cases: co-IP; S. pombe cell lysates made by glass bead beating; GFP-trap or RFP-trap agarose beads to precipitate YFP- or mCherry-tagged proteins; Atg5-Atg16 tested in wild-type, atg12Δ and atg18aΔ cells
Atg6-YFP (S. pombe) = target: T1, Atg6-YFP (S. pombe) (UniProt P87117)
T1 sequence: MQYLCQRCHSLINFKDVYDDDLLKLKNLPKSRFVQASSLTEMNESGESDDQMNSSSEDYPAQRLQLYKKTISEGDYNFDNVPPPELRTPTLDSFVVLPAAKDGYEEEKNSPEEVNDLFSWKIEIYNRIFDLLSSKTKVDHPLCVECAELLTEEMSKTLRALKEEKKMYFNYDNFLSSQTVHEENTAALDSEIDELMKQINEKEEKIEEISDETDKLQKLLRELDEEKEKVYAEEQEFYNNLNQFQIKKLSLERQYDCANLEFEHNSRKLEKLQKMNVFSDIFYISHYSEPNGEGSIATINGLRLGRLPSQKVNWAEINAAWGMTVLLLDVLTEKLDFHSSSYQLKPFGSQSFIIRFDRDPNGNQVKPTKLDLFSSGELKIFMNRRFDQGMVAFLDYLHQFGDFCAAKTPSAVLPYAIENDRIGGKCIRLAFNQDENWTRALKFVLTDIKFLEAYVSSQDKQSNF

Atg18a (S. pombe) = target: T2, Atg18a (S. pombe) (UniProt Q9HDZ7)
T2 sequence: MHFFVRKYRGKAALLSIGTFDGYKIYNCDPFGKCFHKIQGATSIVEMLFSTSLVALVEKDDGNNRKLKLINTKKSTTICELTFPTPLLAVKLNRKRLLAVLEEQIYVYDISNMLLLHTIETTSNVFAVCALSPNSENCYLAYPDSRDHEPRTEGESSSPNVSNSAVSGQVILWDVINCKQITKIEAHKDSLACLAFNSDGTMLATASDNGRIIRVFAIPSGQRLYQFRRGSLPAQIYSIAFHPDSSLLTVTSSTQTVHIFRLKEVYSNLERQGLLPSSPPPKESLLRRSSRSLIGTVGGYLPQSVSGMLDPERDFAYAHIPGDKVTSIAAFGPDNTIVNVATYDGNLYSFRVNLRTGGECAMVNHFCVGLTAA

Ctl1 (S. pombe) = target: T3, Ctl1 (S. pombe) (UniProt O74441)
T3 sequence: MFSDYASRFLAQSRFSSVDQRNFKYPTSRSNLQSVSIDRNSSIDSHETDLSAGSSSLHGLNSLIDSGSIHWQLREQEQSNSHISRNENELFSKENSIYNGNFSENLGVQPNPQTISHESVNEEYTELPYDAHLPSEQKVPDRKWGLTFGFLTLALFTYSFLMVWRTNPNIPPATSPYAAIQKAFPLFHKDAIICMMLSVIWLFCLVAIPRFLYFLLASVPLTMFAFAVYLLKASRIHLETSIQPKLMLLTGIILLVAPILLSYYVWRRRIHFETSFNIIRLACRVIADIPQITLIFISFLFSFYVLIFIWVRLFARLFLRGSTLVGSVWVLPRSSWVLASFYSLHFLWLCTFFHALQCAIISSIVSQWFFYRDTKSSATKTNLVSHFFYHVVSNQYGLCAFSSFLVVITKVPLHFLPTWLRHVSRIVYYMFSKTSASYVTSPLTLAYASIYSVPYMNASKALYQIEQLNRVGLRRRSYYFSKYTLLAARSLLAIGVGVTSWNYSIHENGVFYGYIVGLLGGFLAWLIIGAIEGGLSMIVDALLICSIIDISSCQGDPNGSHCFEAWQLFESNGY

[1] = target: T4, Atg5 (as used in the reciprocal co-IP with Atg18a, Figure 4D) (S. pombe) (UniProt O74971)
T4 sequence: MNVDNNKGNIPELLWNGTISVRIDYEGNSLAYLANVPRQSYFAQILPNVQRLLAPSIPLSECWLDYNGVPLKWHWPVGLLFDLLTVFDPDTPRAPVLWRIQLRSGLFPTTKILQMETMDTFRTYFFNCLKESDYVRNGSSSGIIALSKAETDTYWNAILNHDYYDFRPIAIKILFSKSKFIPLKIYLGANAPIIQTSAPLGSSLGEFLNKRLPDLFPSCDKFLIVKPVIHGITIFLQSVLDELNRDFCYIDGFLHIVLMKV

Atg9 (S. pombe) = target: T5, Atg9 (S. pombe) (UniProt O74312)
T5 sequence: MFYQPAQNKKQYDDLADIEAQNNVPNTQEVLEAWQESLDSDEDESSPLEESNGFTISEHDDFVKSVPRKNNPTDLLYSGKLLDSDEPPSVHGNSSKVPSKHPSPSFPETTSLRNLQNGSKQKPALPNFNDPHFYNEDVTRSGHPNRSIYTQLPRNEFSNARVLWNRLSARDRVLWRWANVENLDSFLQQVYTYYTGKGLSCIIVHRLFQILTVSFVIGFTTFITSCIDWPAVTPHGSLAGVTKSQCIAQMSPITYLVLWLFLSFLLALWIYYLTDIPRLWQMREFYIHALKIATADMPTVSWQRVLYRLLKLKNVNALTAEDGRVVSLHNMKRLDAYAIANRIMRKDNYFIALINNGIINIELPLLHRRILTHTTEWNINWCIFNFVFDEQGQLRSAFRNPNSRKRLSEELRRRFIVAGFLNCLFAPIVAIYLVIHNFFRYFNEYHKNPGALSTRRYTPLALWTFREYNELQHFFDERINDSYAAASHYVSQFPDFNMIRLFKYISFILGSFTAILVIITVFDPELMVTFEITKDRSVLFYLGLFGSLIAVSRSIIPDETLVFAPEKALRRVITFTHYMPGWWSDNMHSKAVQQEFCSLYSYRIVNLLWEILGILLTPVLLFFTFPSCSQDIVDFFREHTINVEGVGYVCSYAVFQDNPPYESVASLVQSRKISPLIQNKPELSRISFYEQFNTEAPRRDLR

B2: Atg5 (as used in the reciprocal co-IP with Atg18a, Figure 4D) (protein, UniProt O74971 1-261)
chain: MNVDNNKGNIPELLWNGTISVRIDYEGNSLAYLANVPRQSYFAQILPNVQRLLAPSIPLSECWLDYNGVPLKWHWPVGLLFDLLTVFDPDTPRAPVLWRIQLRSGLFPTTKILQMETMDTFRTYFFNCLKESDYVRNGSSSGIIALSKAETDTYWNAILNHDYYDFRPIAIKILFSKSKFIPLKIYLGANAPIIQTSAPLGSSLGEFLNKRLPDLFPSCDKFLIVKPVIHGITIFLQSVLDELNRDFCYIDGFLHIVLMKV
binding (Atg18a (S. pombe)): binds

B3: Atg9 (protein, UniProt O74312 1-702)
chain: MFYQPAQNKKQYDDLADIEAQNNVPNTQEVLEAWQESLDSDEDESSPLEESNGFTISEHDDFVKSVPRKNNPTDLLYSGKLLDSDEPPSVHGNSSKVPSKHPSPSFPETTSLRNLQNGSKQKPALPNFNDPHFYNEDVTRSGHPNRSIYTQLPRNEFSNARVLWNRLSARDRVLWRWANVENLDSFLQQVYTYYTGKGLSCIIVHRLFQILTVSFVIGFTTFITSCIDWPAVTPHGSLAGVTKSQCIAQMSPITYLVLWLFLSFLLALWIYYLTDIPRLWQMREFYIHALKIATADMPTVSWQRVLYRLLKLKNVNALTAEDGRVVSLHNMKRLDAYAIANRIMRKDNYFIALINNGIINIELPLLHRRILTHTTEWNINWCIFNFVFDEQGQLRSAFRNPNSRKRLSEELRRRFIVAGFLNCLFAPIVAIYLVIHNFFRYFNEYHKNPGALSTRRYTPLALWTFREYNELQHFFDERINDSYAAASHYVSQFPDFNMIRLFKYISFILGSFTAILVIITVFDPELMVTFEITKDRSVLFYLGLFGSLIAVSRSIIPDETLVFAPEKALRRVITFTHYMPGWWSDNMHSKAVQQEFCSLYSYRIVNLLWEILGILLTPVLLFFTFPSCSQDIVDFFREHTINVEGVGYVCSYAVFQDNPPYESVASLVQSRKISPLIQNKPELSRISFYEQFNTEAPRRDLR
binding (Ctl1 (S. pombe)): binds

The next lines start with the values.

binding (Atg6-YFP (S. pombe)): binds
B1: Atg14-Myc (protein, UniProt O42862 1-390)
chain: MLHVNKCQLCETRRPSICESCLKKQLYDFYHKRDEFSRDIESELEKVAKLKSESFSLKGKITQKEELTYRLQNLAASLNEKKSLSCDLHSRKQLIEDDLSNRKKSINIASQKLAGLSHSTSDYFSKEYLTAYRRSELLQNKLHEYQKKLITRVLDMYQLHWQRDLVLNTQGCTQKSAQMGSEFNPDSIDSSLAYRLSKLSMGNSKSDLSHSDNETGHFYSNFFSQVMELNASVTISGIPVCIRSKEKMFLNPDCALTLSFICIFLAQYTSIPLPCPLQLPSPDQKPMTSFSSEQMLYIMYNIVWISWNCGIFSFPRGITQSQLFELMQYTGFWLVQLRTKPLTSQKPDWHYKMGMDFDLFHRLYLARLPIPINYSSLRSRSSSKPYQLIS

binding [1]: binds
B4: Atg18a (protein, UniProt Q9HDZ7 1-373)
chain: MHFFVRKYRGKAALLSIGTFDGYKIYNCDPFGKCFHKIQGATSIVEMLFSTSLVALVEKDDGNNRKLKLINTKKSTTICELTFPTPLLAVKLNRKRLLAVLEEQIYVYDISNMLLLHTIETTSNVFAVCALSPNSENCYLAYPDSRDHEPRTEGESSSPNVSNSAVSGQVILWDVINCKQITKIEAHKDSLACLAFNSDGTMLATASDNGRIIRVFAIPSGQRLYQFRRGSLPAQIYSIAFHPDSSLLTVTSSTQTVHIFRLKEVYSNLERQGLLPSSPPPKESLLRRSSRSLIGTVGGYLPQSVSGMLDPERDFAYAHIPGDKVTSIAAFGPDNTIVNVATYDGNLYSFRVNLRTGGECAMVNHFCVGLTAA

binding (Atg9 (S. pombe)): binds
B5: Ctl1 (protein, UniProt O74441 1-574)
chain: MFSDYASRFLAQSRFSSVDQRNFKYPTSRSNLQSVSIDRNSSIDSHETDLSAGSSSLHGLNSLIDSGSIHWQLREQEQSNSHISRNENELFSKENSIYNGNFSENLGVQPNPQTISHESVNEEYTELPYDAHLPSEQKVPDRKWGLTFGFLTLALFTYSFLMVWRTNPNIPPATSPYAAIQKAFPLFHKDAIICMMLSVIWLFCLVAIPRFLYFLLASVPLTMFAFAVYLLKASRIHLETSIQPKLMLLTGIILLVAPILLSYYVWRRRIHFETSFNIIRLACRVIADIPQITLIFISFLFSFYVLIFIWVRLFARLFLRGSTLVGSVWVLPRSSWVLASFYSLHFLWLCTFFHALQCAIISSIVSQWFFYRDTKSSATKTNLVSHFFYHVVSNQYGLCAFSSFLVVITKVPLHFLPTWLRHVSRIVYYMFSKTSASYVTSPLTLAYASIYSVPYMNASKALYQIEQLNRVGLRRRSYYFSKYTLLAARSLLAIGVGVTSWNYSIHENGVFYGYIVGLLGGFLAWLIIGAIEGGLSMIVDALLICSIIDISSCQGDPNGSHCFEAWQLFESNGY
